In PubChem BioAssay AID463205 (Broad Institute, 2010):
In all, about 2,400 compounds went through this assay and about 20 (0.8%) were called active.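 Rule for the calls: active = AC50 no more than ten times the highest tested concentration, or full inhibition at every dose giving a flat fit (cut at about 30 µM in these data); inconclusive = flat fit with activity between 30% and 70%, or poor-quality invalid fit; inactive = AC50 more than ten times the top tested dose.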 Some of the results follow.

Experiment: inhibitors of ADP-Glo detection reagents, dose response, artefact control for GSK-3a inhibitor project, biochemical, luminescence, cell-free, homogeneous (AID 463205);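 note: kinase-free counter-screen against the ADP-Glo detection reagents only; potency is for inhibitors that reduce the luminescence signal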
Details: 5 uM ADP

AC50, inactive:
CC1CCN(Cc2c(C(=O)N/N=C/c3cccc(Cl)c3)nnn2-c2nonc2N)CC1 > 30 µM
CC(=NCCCn1ccnc1)c1c(O)n(Cc2ccccc2)c(=O)[nH]c1=O > 30 µM
Clc1cncc(Cl)c1N/N=C/c1ccncc1 > 30 µM
COC(=O)C1CSc2[nH]c(=O)sc2C1c1ccc(O)c(OC)c1 (stereo not given) > 30 µM
O=C(CSc1nc2ccccc2o1)Nc1nc2ccc(Br)cc2s1 > 30 µM
COc1ccc(-c2cc(NCc3ccccn3)n3ncnc3n2)cc1 > 30 µM
Clc1ccc(/C=N/Nc2ncnc3ccccc23)cc1Cl > 30 µM
CC(=O)Nc1ccc(C2(c3ccc(NC(C)=O)cc3)NC(=O)c3ccccc32)cc1 > 30 µM
Oc1ccc(-c2nc3ncccn3c2Nc2ccc3c(c2)OCO3)cc1 > 30 µM
O=C(NC1=NCCS1)c1ccc(Cl)cc1 > 30 µM
NC(=O)c1sc2nc3c(c(-c4ccco4)c2c1N)CCCC3 > 30 µM
COc1ccc2c(c1)C(SCC(=O)NCc1ccccc1)CC(C)(C)O2 (stereo not given) > 30 µM
NC(=O)[C@@H]1CCCNc2c(I)cc([N+](=O)[O-])cc2C(=O)N[C@@H](CCCN=C(N)N)C(=O)N[C@@H](CCCN=C(N)N)C(=O)N1 > 30 µM
COc1ccc(-c2cc(C(F)(F)F)nc(SCCC(=O)NCc3ccccc3)n2)cc1 > 30 µM
COc1ccc(-c2cc(=O)c3ccccc3o2)cc1 > 30 µM
Cc1cc2oc(C(=O)NCCc3ccc(S(N)(=O)=O)cc3)c(C)c2cc1C > 30 µM
COC(=O)c1cc2cc(Cl)ccc2nc1SC > 30 µM
CC(=O)c1cccc(NC(=S)NC(=O)CC(C)C)c1 > 30 µM
Cc1cccc(-c2nnc(SCc3nc4ccccc4[nH]3)n2Cc2ccco2)c1 > 30 µM
CC1(C)CC(=O)C(C=Nc2ccc(O)cc2)=C(O)C1 > 30 µM
CC(C)OC(=O)/C(C#N)=C/c1c[nH]c2ccccc12 > 30 µM
COc1ccc2[nH]c(C)c(CN3CCCCC3)c(=O)c2c1 > 30 µM
COC(=O)c1cnn(C(=O)c2ccccc2Br)c1N > 30 µM
CC1=Nn2c(nc3sc4c(c3c2=O)CCCC4)SC1 > 30 µM
COc1ccc(COC(=O)C2=C(C)NC(=O)NC2c2ccccc2F)cc1 (stereo not given) > 30 µM
COc1cccc(Nc2nc(-c3ccc(O)cc3)cs2)c1 > 30 µM
Clc1ccc(Nc2ncnc3ccc(Br)cc23)cc1 > 30 µM
Fc1cccc(Nc2nc(-c3ccncc3)nc3ccccc23)c1 > 30 µM
Cn1cc(C2=C(c3ccc(Cl)cc3Cl)C(=O)NC2=O)c2ccccc21 > 30 µM
Cn1c(SCC(=O)N/N=C/C=C/c2ccco2)nc2ccccc21 > 30 µM
O=C(COc1ccccc1Cl)Nc1ccc(Cl)cn1 > 30 µM
O=[N+]([O-])c1ccccc1/C=N/n1c(-c2cccnc2)n[nH]c1=S > 30 µM
Cc1ccc(S(=O)(=O)c2c(C(=O)c3ccccc3)cnc3cc4c(cc23)OCCO4)cc1 > 30 µM
Cc1ccc(OCC(=O)Nc2ccc3c(c2)C(=O)NC3=O)cc1 > 30 µM
CCOC(=O)N1CCc2c(sc3nc(SC(C)C)n(N)c(=O)c23)C1 > 30 µM
N#CC1=C2SCN(Cc3ccco3)CN2C(=O)CC1c1ccc(Cl)cc1 (stereo not given) > 30 µM
Cc1ccc(S(=O)(=O)Nc2cccc3cccnc23)cc1 > 30 µM
O=C(Cn1c(NCCO)nc2ccccc21)NCC1CCCO1 (stereo not given) > 30 µM
CN1CCCN(C(=O)CC(c2ccccc2)c2ccccc2)CC1 > 30 µM
Cc1cc(C)c(/C=N/NC(=O)c2nnn(-c3nonc3N)c2CN2CCC(C)CC2)c(C)c1 > 30 µM
COc1cccc(NC(=O)Nc2cc(Cl)ccc2C)c1 > 30 µM
CCn1c(SCC(=O)N/N=C/C=C\c2ccco2)nc2ccccc21 > 30 µM
CCOC(=O)CC(C#N)c1c[nH]c2ccccc12 (stereo not given) > 30 µM
COc1ccc(C2c3sc(=O)[nH]c3SC3C4CCC(C4)C23)cc1OC (stereo not given) > 30 µM
NC(=O)c1nnn(-c2ccccc2)c1N > 30 µM
Oc1ccc(/C=N/NC(=S)N/N=C/c2ccc(O)cc2)cc1 > 30 µM
O=C1Nc2ccccc2/C1=C/c1cnc(-c2ccccc2)[nH]1 > 30 µM
O=C(Nc1ccsc1C(=O)NC1CCCCC1)c1ccc(F)cc1 > 30 µM
O=[N+]([O-])c1cc(S(=O)(=O)c2ccc(N3CCCCC3)c([N+](=O)[O-])c2)ccc1N1CCCCC1 > 30 µM
Cc1cc(NC(=O)CSc2nc3ccccc3c(=O)n2CCCC(=O)NCc2ccco2)n[nH]1 > 30 µM
Cc1ccc2nc(-c3cccc(N)c3)[nH]c2c1 > 30 µM
O=C(NCCc1csc(-c2cccnc2)n1)c1ccc(Br)o1 > 30 µM
CCOC(=O)Nc1nc(C)c(C(=O)c2ccc(Cl)cc2)s1 > 30 µM
CN1/C(=C\C=C(/C#N)C(=O)Nc2ccccc2F)C(C)(C)c2ccccc21 > 30 µM
COc1c(OC)c(O)c2c(=O)c(O)c(-c3ccccc3)oc2c1OC > 30 µM
Cc1ccc(-c2nnc(CSc3nnc(C)s3)o2)cc1 > 30 µM
CCN(CC)CCCNc1nc(N)c([N+](=O)[O-])c(N2CCCCCC2)n1 > 30 µM
C/C(=N\NC(=O)c1nnn(-c2nonc2N)c1-c1cccs1)c1ccc(O)cc1 > 30 µM
CN1CCc2cccc3c2C1Cc1ccc(O)c(O)c1-3 (stereo not given) > 30 µM
Cc1nc2ncnn2c(C)c1Cc1cccc(F)c1 > 30 µM
Fc1ccc(Nc2ncnc3sccc23)cc1 > 30 µM
CCOc1ccc(C(=O)c2cnc3ccccc3c2N2CCN(CC)CC2)cc1 > 30 µM
CCN1CCN(c2nc(N(C)c3ccccc3)nc(N)c2[N+](=O)[O-])CC1 > 30 µM
CCOc1cc(/C=C2\N=C3CCCCCN3C2=O)ccc1O > 30 µM
Cc1[nH]nc2c1C(c1ccsc1)C1=C(CC(C)(C)CC1=O)N2 (stereo not given) > 30 µM
Cc1cc(O)c(Oc2cc(C)cc(O)c2O)c(O)c1 > 30 µM
O=[N+]([O-])c1ccc(Nc2nc(Cl)nc(NCCO)n2)cc1 > 30 µM
CC(C)c1cc(C(N)=O)c(NC(=O)C2CCC2)s1 > 30 µM
O=C(Nc1cccc(C(=O)NC2CCCCC2)c1)c1ccccc1 > 30 µM
O=[N+]([O-])c1ccc(N/N=C/c2cn(Cc3ccc(F)cc3)c3ccccc23)nc1 > 30 µM
CC1=[N+](C)c2ccc3ccccc3c2C1(C)C > 30 µM
COc1cc(/C=C/c2cc[n+](C)cc2)ccc1OCC(=O)Nc1ccc(Cl)c(Cl)c1 > 30 µM
Cc1cc2[nH]c(=S)[nH]c2cc1C > 30 µM
O=C1NC(=Nc2ccccc2Cl)S/C1=C\c1cccc([N+](=O)[O-])c1O > 30 µM
Cc1ccc(C)c(Sc2ccc(NC(=O)CCl)cc2)c1 > 30 µM
COCCNc1nc(N)c([N+](=O)[O-])c(NCc2ccccc2)n1 > 30 µM
CC(=O)Nc1n[nH]c(-c2ccc(C)cc2)c1C > 30 µM
O=C(CNCC1CCCO1)Nc1ccc([N+](=O)[O-])cc1C(=O)Nc1ccccc1F (stereo not given) > 30 µM
O=C1c2cccc(O)c2C(=O)c2c(O)cc(CO)cc21 > 30 µM
CCOC(=O)N1CCC(N2CCN(S(=O)(=O)c3ccc4ccccc4c3)CC2)CC1 > 30 µM
CCOC(=O)N1CCc2c(sc3nc4n(c(=O)c23)N=C(C)CS4)C1 > 30 µM
CC1(C)Cc2cccc(C(=O)Nc3ccc(Cl)cc3)c2O1 > 30 µM
CC1=C(C(=O)OCc2ccccc2)C(c2cccc(F)c2)NC(=O)N1 (stereo not given) > 30 µM
N#CC(C#N)=C1CCc2ccccc2N1 > 30 µM
COc1ccc(N=Cc2c(O)[nH]c3ccccc23)cc1 > 30 µM
C/C(=N\NC(=O)c1ccccc1NC(=O)c1ccc(Cl)cc1)c1ccncc1 > 30 µM
COc1ccc(C2CC(=O)N3CN(c4ccccc4F)CSC3=C2C#N)cc1OC (stereo not given) > 30 µM
O=C1OCCC1Sc1nnc(-c2ccc3c(c2)OCO3)o1 (stereo not given) > 30 µM
CC(C)NC(=S)Nc1ccc2cn[nH]c2c1 > 30 µM
CCOc1ccccc1NC(=O)Nc1ccc(Cl)cc1 > 30 µM
Cc1ccc(Sc2nc(-c3ccccc3)nnc2C(F)(F)F)cc1 > 30 µM
S=C(NCCc1ccccc1)Nc1cccc2cnccc12 > 30 µM
O=C(NCCN1CCN(Cc2ccccc2)CC1)Nc1cc(Cl)cc(Cl)c1 > 30 µM
COc1cc(/C=N\NC(=O)c2ccc(-c3ccccc3)cc2)cc(Br)c1O > 30 µM
Cc1cccc(N(CC(O)CN2CCCC2)S(=O)(=O)c2ccccc2)c1 (stereo not given) > 30 µM

Already shown: an excerpt of the list.
AC50, inactive:
O=C(Nc1cccc(C(=O)NC2CCCCC2)c1)c1ccccc1 > 30 µM
O=[N+]([O-])c1ccc(N/N=C/c2cn(Cc3ccc(F)cc3)c3ccccc23)nc1 > 30 µM
CC1=[N+](C)c2ccc3ccccc3c2C1(C)C > 30 µM
COc1cc(/C=C/c2cc[n+](C)cc2)ccc1OCC(=O)Nc1ccc(Cl)c(Cl)c1 > 30 µM
Cc1cc2[nH]c(=S)[nH]c2cc1C > 30 µM
